The source of these data is patent publication US20170008949A1 (Hoffmann-La Roche, published 2017).

Amino acid sequences for entries named in this document (tags omitted). Residues count along the entry.
UniProt P05121, residues 24-402: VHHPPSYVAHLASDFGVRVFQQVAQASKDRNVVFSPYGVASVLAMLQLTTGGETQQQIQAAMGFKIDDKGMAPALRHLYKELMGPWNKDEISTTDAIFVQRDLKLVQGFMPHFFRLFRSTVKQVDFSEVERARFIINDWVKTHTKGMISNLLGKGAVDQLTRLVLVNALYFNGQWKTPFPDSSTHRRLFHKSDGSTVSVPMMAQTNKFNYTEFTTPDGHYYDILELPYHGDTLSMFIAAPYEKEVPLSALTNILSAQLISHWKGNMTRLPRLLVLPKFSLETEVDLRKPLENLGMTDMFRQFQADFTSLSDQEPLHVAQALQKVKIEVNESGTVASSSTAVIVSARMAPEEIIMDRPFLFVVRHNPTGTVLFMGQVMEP

These are yes or no findings as the source states them, for the method shown. Some results given as binding are weak or reduced against the parent protein; the word gives no strength. Tags and fused reporters may be left off the sequences shown.

Assay [1] concerns the target recombinant non-glycosylated human PAI-1 (active), produced in E. coli as N-terminal 6xHis-tagged fusion protein (human) (UniProt P05121). In words: inferred by the filing from the PAI-1 inhibition assay.
In assay [2] the target is recombinant glycosylated human PAI-1 (active), produced in insect cells (human) (UniProt P05121). The description is as above.

B1: PAI1-0046 (reference PAI-1 latency inducing antibody with a human IgG4 SPLE Fc-region) (antibody, V domains shown)
VH: QVQLVQSGAEVKKPGASVKVSCKASGYTFTNYGMNWVRQAPGQGLEWMGWINTYTGEPTYTDDFKGRFTMTLDTSISTAYMELSRLRSDDTAVYYCAKDVSGFVFDYWGQGTLVTVSS
VL: DIVMTQSPDSLAVSLGERATINCKSSQSLLNIIKQKNCLAWYQQKPGQPPKLLIYWASTRESGVPDRFSGSGSGTDFTLTISSLQAEDVAVYYCQQYYSYPYTFGQGTKLEIKR
As for B1, the binding result in assay [1] and in assay [2] was “binds” in each case.
